Library screening results

Data taken from ChEMBL document CHEMBL3988442, “University of Dundee, Small-Polar-MMV Screening Library” (2021).

Mtb growth Cornell: 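Whole-cell assay for inhibitors of Mycobacterium tuberculosis growth, labelled Cornell in the record; the read-out is not stated. The concentration is filed as 10 mM, unlikely as a test dose, so the dose is not known. Higher means stronger inhibition (inferred from two other growth screens of the library). Of about 53,000 compounds tested this way, about 900 (1.7%) reached 50% or more in at least one test.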
Mtb heat-shock: 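Assay on Mycobacterium tuberculosis, filed only as a heat shock assay from Cornell; the read-out is not stated. The concentration is filed as 10 mM, unlikely as a test dose, so the dose is not known. The record gives no direction; compounds that gave an IC50 in retests scored well above the rest, so higher reads as stronger inhibition. Of about 69,000 compounds tested this way, about 930 (1.4%) reached 50% or more in at least one test.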

Each number is a percent effect as filed. How 0% and 100% were set is not recorded. Most values in the screen are low, and negative values occur. This is an unselected part of the compounds tested. A dash means the value is not listed here; it may have been measured.

Compound	Mtb growth Cornell	Mtb heat-shock
COc1ccc2c(C)c(C(=O)NCC3CN(S(C)(=O)=O)CCO3)oc2c1 (centres undefined)	-21.24	7.837
Cc1ccc(S(=O)(=O)NC2CC2)cc1C	-5.217	-10.6
O=C(O)C(F)(F)F.O=C(c1ccco1)N1CCOC2(COCCN(c3ncccn3)C2)C1 (centres undefined)	26.47	-5.919
CCN(CC(=O)NC(C)C)C(=O)c1ccc(-c2ccsc2)nc1C	14.39	-31.64
COC(=O)CC(NC(=O)c1cc(OC)c2c(c1)OCCO2)c1cccs1 (centres undefined)	-	-3.968
CN(C)CCC(Nc1nc(N)nc2c1CCNCC2)c1ccccc1 (centres undefined)	10	8.126
Cc1noc(Cl)c1CCC(=O)N1CCN(c2ccccc2)CC1	-1.381	6.053
COCCN(Cc1ccccn1)C(=O)c1ccc(=O)n(C)c1	9.706	-5.402
CN1CCCC1CNC(=O)CCOc1ccc(Cl)cc1 (centres undefined)	-	-2.412
Cc1cc(C(F)(F)F)nn1CC(C)C(=O)Nc1ccccn1 (centres undefined)	-	-10.53
Nc1cc2c(nn1)CCN(C(=O)C1CCc3ccccc31)C2 (centres undefined)	-	1.633
CC1(C(=O)NC2CCCC2)CN(c2cnccn2)CCO1 (centres undefined)	-3.571	-10.32
COCCO[C@@H]1CCN(C(=O)c2ccc(C)o2)[C@@H]1Cc1cccnc1.O=C(O)C(F)(F)F	16.28	104.5
CN(Cc1cccc(F)c1)C(=O)CS(=O)(=O)Cc1ccc(Cl)c(Cl)c1	21.75	52.33
Cc1cc(C(=O)NC2CCc3c(ccc(=O)n3CCN(C)C)C2)no1 (centres undefined)	12.9	1.886
COc1ccc(CN2CCN(C(C)=O)CC2)cc1SC(F)(F)F	2.055	-14.74
Cc1cc(CC(C)NC2CCN(CC(C)C)CC2)[nH]n1 (centres undefined)	-62.36	21
CCn1cnnc1C1CCN(C(=O)c2cnc(C3CC3)s2)CC1	18.49	10.28
CCCc1nc(C(=O)NCc2cccnc2-n2cncn2)cs1	-21.82	-24.02
[H][C@]12CCC[C@@]1(COC)CN(C(=O)COC1CCCC1)C2	29.4	27.68
COc1ccc(Cl)cc1S(=O)(=O)N(C)CC(N)=O	28.08	9.842
Cc1cccc(C2(CNC(=O)CO)CCCC2)c1	-	-17.14
Cc1cccc(NCCOc2cccc(C#N)c2)c1C(N)=O	-	-49.28
CCC(C)(CC(=O)OC)NC(=O)c1ccc2[nH]ccc2c1 (centres undefined)	16.88	-13.61
Cc1ccc(NC2CCN(C(=O)c3cc(C(N)=O)cs3)CC2)nn1	-	-4.653
COC(=O)C1CCN(C(=O)CN2CCN(c3cccc(C)c3)CC2)CC1	21.3	-4.154
COCC1CN(C(=O)c2cccs2)Cc2nccn2C1 (centres undefined)	-7.37	7.377
Cc1nc(C2CCCN2Cc2nnc(Cc3ccccc3)o2)no1 (centres undefined)	-47.35	17.21
[H][C@@]12C[C@@H](c3nnc(C4CC4)o3)O[C@]1([H])CN(C(=O)c1cccn1C)C2	18.96	3.123
CCc1cnc(N)nc1N(C)CCc1cnn(C)c1	-5.372	-14.35
CCN(C(C)=O)C1CCN(c2nccc(C3CCCC3)n2)C1 (centres undefined)	-2.356	0.3035
CCCn1ncc(C(=O)N2CCCC(OCc3ccccn3)C2)c1C (centres undefined)	-4.294	-4.688
CN1CCN(S(C)(=O)=O)Cc2cccnc21	1.255	14.06
Cc1cnc(N2CCC3(CC2)CC(NC(=O)N(C)C)CO3)nc1 (centres undefined)	15.27	-12.82
CC(=O)NCCNC(=O)C(c1ccccc1C)N(C)C (centres undefined)	-16.69	-22.38
O=C1OCC(CO)N1Cc1cccc(Cl)c1F (centres undefined)	-5.938	-12.07
O=C(O)C(F)(F)F.[H][C@@]12CCCO[C@]1([H])[C@H](Oc1ccccn1)CN2S(=O)(=O)CC	-25.27	19.48
O=C(Nc1cn[nH]c1)c1ccncc1	-	-19.42
Cc1cccc(OCc2nnc(SCC3CCCN(C)C3)o2)c1 (centres undefined)	-9.865	-19.78
CC(C)(C)C(=O)N1CCC(c2nc(O)cc(-c3ccncc3)n2)CC1	-7.204	-4.229
[H][C@@]12CNCC[C@]1(O)CCN(CCOc1ccc(C)cc1OC)C2	-31.66	-18.38
Cc1nc(N2C[C@@H](CN3CCCN(C)CC3)[C@@H](CO)C2)c2ccsc2n1	-6.27	-11.68
CC(NS(=O)(=O)CCCC#N)c1cccc(-n2cccn2)c1 (centres undefined)	12.45	5.584
COc1ccc(-c2nc(CN3CCc4cnc(C)nc4C3)no2)cc1	-	4.806
CC(C)(NCc1cccc(C(N)=O)c1)c1ccc2c(c1)OCO2	12.28	-33
CCc1ccc(CN2CCCC(CO)(CCOC)C2)cc1 (centres undefined)	-3.023	-7.52
Cl.Cl.O=C(NCc1cncc2c1CCN(CC1CCOC1)C2)c1ccno1 (centres undefined)	10.15	-34.96
CNC(=O)c1ccc(S(=O)(=O)NCc2cccnc2N(C)C)cc1	-	-19.23
CC(C)C(=O)NCCC(=O)N1CCN(c2ccccn2)CC1	29.61	12.33
COc1cc(C)sc1C(=O)NCCC(=O)N(C)Cc1ccccc1	36.78	-0.309
CCCC(=O)N1CCC(O)(Cn2c(CC)nc3ccccc3c2=O)CC1.Cl	10.46	-25.95
O=C(O)C(F)(F)F.[H][C@@]12CCN(Cc3ccc4c(c3)OCO4)C[C@]1([H])O[C@H](C(=O)N1CCCC1)C2	15.42	-15.24
CCN(CC)Cc1ccc(C(=O)N2CCCC2Cn2cccn2)o1 (centres undefined)	-	-6.878
CCc1nnc2n1CCN(Cc1csc(-c3ccccc3)n1)C2	-18.96	8.023
CNC(=O)C1Cn2ccnc2C2(CCN(C(=O)CC3CCCC3)CC2)O1.O=C(O)C(F)(F)F (centres undefined)	0.7926	-7.732
COc1ccccc1C1(O)CCCN(C(=O)c2csc(C(C)=O)c2)C1 (centres undefined)	-11.4	-6.79
CCc1noc(CCCC(=O)Nc2cc(C(F)(F)F)c[nH]c2=O)n1	19.19	10.71
O=C1CCCN1CCC1CCN(C2CCC3(CCNCC3)CC2)CC1	6.93	1.487
Cc1n[nH]c(C2CN(C(=O)c3scnc3C)CCO2)n1 (centres undefined)	-18.61	-9.299
Cc1ccc(-c2cc(C(=O)NCC3CCOC3)n[nH]2)s1 (centres undefined)	-20.08	-14.1
COc1cc(CNCc2c(C)nn(C)c2N(C)C)ccc1OCCO	-	6.203
CC(C)c1noc(CNc2ccc(OC(F)F)cc2OC(F)F)n1	-8.179	19.86
COC(=O)c1ccc(N(C(=O)c2cc(Cl)ccn2)C(C)C)c(C)c1	14.1	-11.1
c1ncn(CC2CCCCN2Cc2csc(C3CCCC3)n2)n1 (centres undefined)	-5.436	9.904
c1cncc(-c2cccc(-c3ccn(CCN4CCCCC4)n3)c2)c1	-	-9.116
CCS(=O)(=O)NCCCNc1cc(N2CCCC2CO)ncn1 (centres undefined)	22.16	5.955
COc1cc(C(=O)NC2COc3ccccc3C2)ccc1OCC(N)=O (centres undefined)	-5.317	-0.2591
CN(C)c1ccc(CNC(=O)NCCc2ccccn2)cn1	-13.58	-20.24
O=C(CN1CCS(=O)(=O)CC1)NC1CCOc2ccccc21 (centres undefined)	-0.1203	14.09
O=C1NCCCCC1Sc1nnc(C2CC2)n1C1CC1 (centres undefined)	-14.4	2.988
COCC1CN(Cc2ccccn2)Cc2nn(C)cc21 (centres undefined)	-6.767	-37.4
CC(C)N1CCCC(CNC(=O)Cc2csc(-c3cccnc3)n2)C1 (centres undefined)	16.77	-0.01106
CCc1ncc(S(C)(=O)=O)c(C2CCCNC2)n1 (centres undefined)	21.49	-9.142
Cc1ccc(NC(=O)c2nc3c(s2)CCCN3C(=O)C2CC2)cn1.O=C(O)C(F)(F)F	10.63	-11.35
[H][C@]12CC[C@]([H])(CN(Cc3ccccc3)C1)N(C(=O)c1ccc(SC)cc1)C2	-	30.85
CCN1CCn2c(C)cnc2C12CCN(C(=O)NCC(C)C)CC2.O=C(O)C(F)(F)F	2.984	3.209
CCc1nc(CN(C)C2CCN(CCc3ccncc3)C2)no1 (centres undefined)	-	-6.776
CN(C)C(=O)CN1CCCCC1c1nc(N)ncc1-c1ccc(Cl)cc1 (centres undefined)	-15.5	0.8374
COc1ccc2c(c1)OCC(Cc1ccc(C)nc1N)C2 (centres undefined)	9.156	-2.459
Cc1nc(CNC(C)c2ccc(OCC(=O)NC3CC3)cc2)cs1 (centres undefined)	-	-7.701

Some entries from above, unchanged:

* COc1cc(C(=O)NC2COc3ccccc3C2)ccc1OCC(N)=O (centres undefined) : Mtb growth Cornell: -5.317%; Mtb heat-shock: -0.2591%
* O=C1NCCCCC1Sc1nnc(C2CC2)n1C1CC1 (centres undefined) : Mtb growth Cornell: -14.4%; Mtb heat-shock: 2.988%
* Cc1cccc(NCCOc2cccc(C#N)c2)c1C(N)=O : Mtb heat-shock: -49.28%
* O=C1OCC(CO)N1Cc1cccc(Cl)c1F (centres undefined) : Mtb growth Cornell: -5.938%; Mtb heat-shock: -12.07%
* O=C(O)C(F)(F)F.O=C(c1ccco1)N1CCOC2(COCCN(c3ncccn3)C2)C1 (centres undefined) : Mtb growth Cornell: 26.47%; Mtb heat-shock: -5.919%
* COC(=O)c1ccc(N(C(=O)c2cc(Cl)ccn2)C(C)C)c(C)c1 : Mtb growth Cornell: 14.1%; Mtb heat-shock: -11.1%
* COCCN(Cc1ccccn1)C(=O)c1ccc(=O)n(C)c1 : Mtb growth Cornell: 9.706%; Mtb heat-shock: -5.402%
* Cc1cccc(C2(CNC(=O)CO)CCCC2)c1 : Mtb heat-shock: -17.14%